Values of other authors in patent publication US8957106B2, “Iminosugar treatment of tumors” (The Chancellor, Masters and Scholars of the University of …, priority 2007, dated 2015).
At least one compound was matched to its structure with a doubt left.

Conditions: literature data; read-out: IC50 doses reported by other in vitro studies; cited from earlier work

SMILES	IC50 [µM]
C=C(C)[C@@H]1CC[C@]2(C(=O)O)CC[C@]3(C)[C@H](CC[C@@H]4[C@@]5(C)CC[C@H](O)C(C)(C)[C@@H]5CC[C@]43C)[C@@H]12 [betulinic acid]	5
Cn1nnc2c(C(N)=O)ncn2c1=O [temozolomide]	200
